Results are given in words; binding and its absence hold for the method and conditions named. Binding seen in cells or lysates may run through a third protein. A result given as binding can be weak or reduced; the word gives no strength. Tags and fused reporters may be left off the sequences shown.
Target: OsIAA10, luciferase-fragment fusion of the LCI assay (rice)
Test: split reporter; firefly luciferase complementation imaging (LCI) in N. benthamiana leaves, 3 days after agroinfiltration, 0.2 mM luciferin

B1: RDV P2, luciferase-fragment fusion of the LCI assay (protein, UniProt Q18MZ3 1-1116)
chain: MAYPNDVRNVWDVYNVFRDVPNREHLIRDIRNGLVTVRNLTNMLTNMERDDQLIIAQLSNMMKSLSIGVEKAQNELSKLKTTDADRAAVLAAYQTSVLNIERNTMLLTGYFKQLVLDLTGYVGASVYPILPFMITGDQSMMVDSIKINMKNVFDDKHEQEIVLPIHPACFVSTITEDTSSVVYADGDELYSVHVRHATMTMYVNVLGETVETRQLSMIGDSIVPDDFAPSLLILRFSQDSVGEVFYLSHDNMKKFLGYGLEYTDKYSIFDVTRRVSTTRNKIPDGFCSVDGVPYLDGWFIYQPSGISADSNICAIYNSYVLDTLRYITECEVDTLRSVYDQTSSTAFSKTDVLTSSLLTMQSNISALSAATPQLANDVITFDSTDLLSLGTVLTVSNEFTADDTILSTSLAGHCQVDYSEGSPQDKSMSISVSCDSSQLASSTVHSYSADILGHGLKGDRNMNLMINVPGLMNPQKVTVDYVYSDGYKLNFASVVAPGAPFWINATLQLSVSPSAHNMLSKLTPLDNDACPGLKAQANTPVLVSMTINLDDATPALGGEVIQNCVFKIHHGDDVYSFVTDFDVISYTSTSGTNCLKLISSVDITSQLPSDMVIYVMNGSPDAAFISGDSVNMSSVDWHQSTSQTVGNYVYTTMKAYWNVTSYDVEARPYTTYVPGKVNFTAVEHADVFVDDYNTGVNSYVIVNSRIYYKGTPLYIEVPSGSFIKVSYFTSPLKNPTVDTYNAEISRNSAYLIKANASLDSVAAMLNNISNRIDAMERLMEPTRAQQIAGVVSSIGGVISLGMPLLGAIVVTIGTIISIADPDKQGIDYHSVANAFMSWCQYAAVCRYEYGLLKRGDEKLDVLSFMPKRVVSDFKNKPDVISLPELGESVLRGSSTDYLDTGINIIYNDMQLLGQGKLSDWLNKTVSKVENNAANFFERNLDKSLANKEVLPMHARVEITQTEKIGDVYRTTILYTGINEGSYLGGDVFASRLGDKNILRMNGFESGPGRFKAIVESTTEVGNFRVVDWTVSGMSRYEIYAAAGEVYPSKDPSHADVQLLYESIVRDLTTRDGSFVLKHHDVLLLPGQLDAFEELIIKNASNYQYAFIGSNCSKLCA
  binding: binds
